Construct, isoform or probe ends are uncertain for at least one entry.
Target: rHsc70-4 (Drosophila melanogaster) (UniProt P11147)
Experiment: EMSA
Settings: 25 mM Tris (pH not stated), 50 mM NaCl, 0.1 mg/ml BSA, 31.25 mM DTT, 0.625 mg/ml E. coli tRNA, 30 min 25 C; 4% native PAGE 0.5x TBE on ice; nucleotide assays in PBS; recombinant protein; protein details: 6xHis; label: Cy3; probe letters rebuilt from the primers and the genome

By UniProt entry, the sequences of proteins in these tests, tags left out.
UniProt P11147, whole entry: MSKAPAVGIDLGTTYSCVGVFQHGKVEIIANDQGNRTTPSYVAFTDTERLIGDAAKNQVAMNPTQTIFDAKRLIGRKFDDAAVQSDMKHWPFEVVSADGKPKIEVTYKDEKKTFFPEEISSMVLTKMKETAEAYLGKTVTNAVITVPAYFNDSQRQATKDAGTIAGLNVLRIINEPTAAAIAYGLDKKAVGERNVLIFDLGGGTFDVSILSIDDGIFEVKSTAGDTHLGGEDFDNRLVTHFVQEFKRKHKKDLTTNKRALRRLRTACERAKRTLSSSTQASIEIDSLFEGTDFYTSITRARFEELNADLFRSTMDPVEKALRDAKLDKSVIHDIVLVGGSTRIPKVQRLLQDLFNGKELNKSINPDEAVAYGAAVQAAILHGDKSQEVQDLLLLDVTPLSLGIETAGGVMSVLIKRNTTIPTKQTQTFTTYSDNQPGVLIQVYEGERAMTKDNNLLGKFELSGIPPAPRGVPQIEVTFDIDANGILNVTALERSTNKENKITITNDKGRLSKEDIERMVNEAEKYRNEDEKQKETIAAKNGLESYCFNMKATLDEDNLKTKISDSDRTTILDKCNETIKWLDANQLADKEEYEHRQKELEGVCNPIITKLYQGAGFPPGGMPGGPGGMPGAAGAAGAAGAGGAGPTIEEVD

Q: Does “GGGAGAGCAACUUCUGCUGGUAGCCCAGACCCACCUGGCUGGCGUUGUUCACCUUAGCGCGCACGCUGGCAUCAUCAUCCAGCUGAUACUUGGCGCCGAUGGCGAACUUGGUGUUGCUGGUGCCGCUGGCCCACGACAGCUGUACACCCACAUCCAGCUUGUCCGAAGUGCGUUGGAAGAUCGAGCCGCUGAACUCCUGGCCAUCGUUGCUAAACACCGGACAAGGCAAUCAUUAGUUUGCAUUGAUUUCAUUUGCCAUGCGUGGCAAUUGCAAUACUUACACAGCUGUGUGCAGAACAAAGUCCUUGGUGGUGUAGCCAAGGGCAAAGUUGUUGGUGGUCAGCUUGGACUGUUGUGUGUCAAAUGCGGUCUGGUAGCCGGCCAACCAUCCCUGGUAGCCAAGCACGGCAGAGGCAUUGAUCAAGGGGCCCUUCAGAUCAAUGUUCACAUCCGAAUCGGCCUUGACGUUCUCAUGGCCGUAGGCAACCUUGAACUUGCCGUUCUUGUUUCUGACGAUUUUUAAUUAAAUAUGCAAUAUUAAUUAUUCUGCAGUGAACAUAUAUGUAAUAACAUGUGAUCCUUACCCAGACUGAGGAGCAAAGUUGCCCUCCAGGGACAGCUUCAGACCCUCGAGGAGCUGAUCCUGGACAGCAACCUCGGUUCUCCCUAUAGUGAGUCGUAUUA / GGGAGAACCGAGGUUGCUGUCCAGGAUCAGCUCCUCGAGGGUCUGAAGCUGUCCCUGGAGGGCAACUUUGCUCCUCAGUCUGGGUAAGGAUCACAUGUUAUUACAUAUAUGUUCACUGCAGAAUAAUUAAUAUUGCAUAUUUAAUUAAAAAUCGUCAGAAACAAGAACGGCAAGUUCAAGGUUGCCUACGGCCAUGAGAACGUCAAGGCCGAUUCGGAUGUGAACAUUGAUCUGAAGGGCCCCUUGAUCAAUGCCUCUGCCGUGCUUGGCUACCAGGGAUGGUUGGCCGGCUACCAGACCGCAUUUGACACACAACAGUCCAAGCUGACCACCAACAACUUUGCCCUUGGCUACACCACCAAGGACUUUGUUCUGCACACAGCUGUGUAAGUAUUGCAAUUGCCACGCAUGGCAAAUGAAAUCAAUGCAAACUAAUGAUUGCCUUGUCCGGUGUUUAGCAACGAUGGCCAGGAGUUCAGCGGCUCGAUCUUCCAACGCACUUCGGACAAGCUGGAUGUGGGUGUACAGCUGUCGUGGGCCAGCGGCACCAGCAACACCAAGUUCGCCAUCGGCGCCAAGUAUCAGCUGGAUGAUGAUGCCAGCGUGCGCGCUAAGGUGAACAACGCCAGCCAGGUGGGUCUGGGCUACCAGCAGAAGUUGCUCUCCCUAUAGUGAGUCGUAUUA [dsRNA-2 (dsCG6647)]” bind?
A: binds
